# Laboratory results reported in PMC11336944.
# Chains of the proteins cited; added tags and fusions are not shown.
# UniProt O70133: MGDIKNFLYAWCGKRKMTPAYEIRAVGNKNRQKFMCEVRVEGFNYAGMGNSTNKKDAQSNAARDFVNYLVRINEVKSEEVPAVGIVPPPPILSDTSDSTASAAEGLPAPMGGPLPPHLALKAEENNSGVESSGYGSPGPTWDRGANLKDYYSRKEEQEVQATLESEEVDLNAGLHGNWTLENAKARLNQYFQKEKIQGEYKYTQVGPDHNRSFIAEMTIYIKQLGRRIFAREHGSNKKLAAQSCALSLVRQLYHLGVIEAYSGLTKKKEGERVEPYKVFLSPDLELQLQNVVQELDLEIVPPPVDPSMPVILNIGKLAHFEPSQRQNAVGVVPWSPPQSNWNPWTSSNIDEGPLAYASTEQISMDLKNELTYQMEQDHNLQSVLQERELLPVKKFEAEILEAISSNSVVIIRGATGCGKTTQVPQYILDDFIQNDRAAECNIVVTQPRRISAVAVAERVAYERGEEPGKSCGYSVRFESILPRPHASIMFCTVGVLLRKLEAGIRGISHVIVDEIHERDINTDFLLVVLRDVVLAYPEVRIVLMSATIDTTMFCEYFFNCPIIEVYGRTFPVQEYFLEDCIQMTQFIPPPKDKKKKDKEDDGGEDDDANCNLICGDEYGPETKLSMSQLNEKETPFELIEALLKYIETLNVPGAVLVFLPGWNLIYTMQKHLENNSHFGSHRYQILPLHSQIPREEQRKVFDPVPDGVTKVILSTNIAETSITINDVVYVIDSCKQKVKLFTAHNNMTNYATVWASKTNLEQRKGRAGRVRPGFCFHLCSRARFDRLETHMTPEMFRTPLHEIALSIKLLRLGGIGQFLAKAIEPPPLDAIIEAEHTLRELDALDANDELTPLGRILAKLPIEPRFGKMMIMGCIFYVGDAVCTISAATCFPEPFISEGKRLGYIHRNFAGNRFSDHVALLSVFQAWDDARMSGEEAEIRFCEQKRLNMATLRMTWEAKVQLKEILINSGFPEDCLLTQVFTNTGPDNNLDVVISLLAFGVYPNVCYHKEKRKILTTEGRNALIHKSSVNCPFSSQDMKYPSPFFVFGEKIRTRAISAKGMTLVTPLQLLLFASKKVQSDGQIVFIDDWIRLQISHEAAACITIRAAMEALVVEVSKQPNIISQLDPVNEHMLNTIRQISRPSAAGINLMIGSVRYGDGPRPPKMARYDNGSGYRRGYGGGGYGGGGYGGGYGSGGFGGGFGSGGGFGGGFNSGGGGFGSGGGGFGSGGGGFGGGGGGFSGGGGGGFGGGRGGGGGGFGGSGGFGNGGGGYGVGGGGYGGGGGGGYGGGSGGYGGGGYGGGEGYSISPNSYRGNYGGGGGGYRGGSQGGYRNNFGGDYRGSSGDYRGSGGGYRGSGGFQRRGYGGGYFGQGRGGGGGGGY
# UniProt P29341: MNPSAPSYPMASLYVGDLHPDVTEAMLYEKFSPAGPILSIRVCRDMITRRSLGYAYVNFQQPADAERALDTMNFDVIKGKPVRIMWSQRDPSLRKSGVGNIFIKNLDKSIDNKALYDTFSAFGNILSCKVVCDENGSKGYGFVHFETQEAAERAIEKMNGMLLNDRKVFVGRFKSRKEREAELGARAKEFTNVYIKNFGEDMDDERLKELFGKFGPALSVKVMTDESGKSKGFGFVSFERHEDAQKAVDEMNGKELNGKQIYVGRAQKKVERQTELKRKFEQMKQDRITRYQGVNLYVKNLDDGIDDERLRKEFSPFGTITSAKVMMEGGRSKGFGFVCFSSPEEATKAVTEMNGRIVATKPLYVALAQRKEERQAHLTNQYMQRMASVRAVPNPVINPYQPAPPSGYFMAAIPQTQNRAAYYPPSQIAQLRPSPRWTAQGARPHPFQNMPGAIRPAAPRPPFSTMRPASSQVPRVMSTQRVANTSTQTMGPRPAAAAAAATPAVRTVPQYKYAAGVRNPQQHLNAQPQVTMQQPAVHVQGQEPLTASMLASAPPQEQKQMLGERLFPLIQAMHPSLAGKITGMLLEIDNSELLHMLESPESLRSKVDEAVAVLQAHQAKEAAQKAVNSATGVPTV
# UniProt O35286: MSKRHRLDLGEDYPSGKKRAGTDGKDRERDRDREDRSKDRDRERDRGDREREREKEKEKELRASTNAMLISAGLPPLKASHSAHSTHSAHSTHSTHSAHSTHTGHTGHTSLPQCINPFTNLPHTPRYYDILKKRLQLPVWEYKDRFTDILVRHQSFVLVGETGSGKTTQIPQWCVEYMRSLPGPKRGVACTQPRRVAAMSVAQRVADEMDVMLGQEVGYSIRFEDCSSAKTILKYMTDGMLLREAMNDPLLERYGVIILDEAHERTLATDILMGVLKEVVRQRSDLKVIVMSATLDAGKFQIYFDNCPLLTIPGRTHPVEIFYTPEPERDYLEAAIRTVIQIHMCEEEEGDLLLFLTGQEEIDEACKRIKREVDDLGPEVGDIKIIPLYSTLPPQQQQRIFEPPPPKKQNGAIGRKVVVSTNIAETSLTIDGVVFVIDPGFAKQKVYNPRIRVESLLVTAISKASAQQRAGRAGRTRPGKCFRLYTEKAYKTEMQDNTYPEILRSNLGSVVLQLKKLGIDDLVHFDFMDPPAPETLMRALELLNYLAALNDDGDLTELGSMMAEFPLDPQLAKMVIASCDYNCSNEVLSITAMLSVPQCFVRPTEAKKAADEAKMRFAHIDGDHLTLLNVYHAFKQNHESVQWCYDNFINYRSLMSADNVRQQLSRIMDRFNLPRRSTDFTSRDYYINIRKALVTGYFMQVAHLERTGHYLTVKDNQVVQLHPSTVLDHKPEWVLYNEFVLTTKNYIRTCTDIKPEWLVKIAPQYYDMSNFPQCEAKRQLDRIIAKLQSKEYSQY
# These are yes or no findings as the source states them, for the method shown. In cells and extracts the contact can be indirect. Some binding calls cover weakened binding; strength is not graded here.
# Tests used:
# [1] = target: T1, CWF19‐like protein 2 (CWF19L2) (mouse (endogenous in testis)) (UniProt Q8BG79); assay: co-IP; CWF19L2 immunoprecipitation from extracts of PD10 WT testes (NP-40 lysis buffer, antibody at 4 °C overnight, protein A/G magnetic beads), immunoblotting; IgG as negative control
# T1 sequence: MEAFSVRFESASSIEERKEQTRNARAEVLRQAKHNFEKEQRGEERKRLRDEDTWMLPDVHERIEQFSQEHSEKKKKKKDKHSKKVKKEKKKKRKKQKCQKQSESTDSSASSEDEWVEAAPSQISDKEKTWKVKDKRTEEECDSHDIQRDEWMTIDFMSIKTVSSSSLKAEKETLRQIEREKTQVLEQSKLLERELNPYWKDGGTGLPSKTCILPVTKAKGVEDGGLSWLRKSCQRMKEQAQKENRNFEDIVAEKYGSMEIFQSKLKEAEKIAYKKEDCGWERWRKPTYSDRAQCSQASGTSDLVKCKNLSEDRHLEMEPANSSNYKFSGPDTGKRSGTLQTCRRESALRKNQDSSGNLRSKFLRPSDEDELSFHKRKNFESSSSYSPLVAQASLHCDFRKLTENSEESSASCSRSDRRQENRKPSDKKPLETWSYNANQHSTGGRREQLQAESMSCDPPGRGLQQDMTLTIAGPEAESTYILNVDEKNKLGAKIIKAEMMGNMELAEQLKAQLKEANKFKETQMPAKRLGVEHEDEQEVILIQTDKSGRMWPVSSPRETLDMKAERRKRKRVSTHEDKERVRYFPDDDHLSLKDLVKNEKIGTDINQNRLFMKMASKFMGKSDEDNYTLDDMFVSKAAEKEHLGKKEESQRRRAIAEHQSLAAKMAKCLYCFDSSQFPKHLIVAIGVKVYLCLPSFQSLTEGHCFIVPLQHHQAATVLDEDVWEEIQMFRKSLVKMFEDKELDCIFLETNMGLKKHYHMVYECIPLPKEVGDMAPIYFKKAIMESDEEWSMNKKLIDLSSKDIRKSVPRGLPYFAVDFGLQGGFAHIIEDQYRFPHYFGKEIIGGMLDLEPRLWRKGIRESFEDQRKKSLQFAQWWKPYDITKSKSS
# [2] = target: PRPF8 (mouse (endogenous in testis)) (UniProt Q99PV0); assay: co-IP; PRPF8 antibody immunoprecipitation from sorted germ cells of control mice (for SLU7 also of Cwf19l2-SKO mice), immunoblotting; IgG as negative control
# [3] = target: PRPF8 (mouse (endogenous in testis)) (UniProt Q99PV0); assay: co-IP; PRPF8 antibody immunoprecipitation from sorted germ cells of Cwf19l2-SKO mice (CWF19L2 deleted in germ cells), immunoblotting, bands quantified against control mice; IgG as negative control
Substance,binding [1],binding [2],binding [3]
DHX9 (from UniProt O70133 1-1380),binds,–,–
PABPC1 (from UniProt P29341 1-636),binds,–,–
PRPF43 (from UniProt O35286 1-795),binds,binds,binds weakly
